Data as given in publication PMC9269482.
No constants are given. Whether binding was seen depends on the method and setting. Binding seen in cells or lysates may run through a third protein. Some binding calls cover weakened binding; strength is not graded here.

Assays:
Experiment in all cases: cross-linking; transfected CHO cells, control or labelled with 20 uM BMA for 20 min in the dark; surface proteins biotinylated, lysed (1% Triton X-100), streptavidin agarose, SDS-PAGE (sample buffer with 50 mM DTT, 65°C), Western blot with anti-ASIC1 antibody MTY19; dimer band seen with and without BMA
[1] = target: human ASIC1a wild type (human) (UniProt P78348)
[2] = target: human ASIC1a I428C (human) (UniProt P78348)
[3] = target: human ASIC1a G430C (human) (UniProt P78348)

B1: human ASIC1a wild type (protein, UniProt P78348-2 1-528)
chain: MELKAEEEEVGGVQPVSIQAFASSSTLHGLAHIFSYERLSLKRALWALCFLGSLAVLLCVCTERVQYYFHYHHVTKLDEVAASQLTFPAVTLCNLNEFRFSQVSKNDLYHAGELLALLNNRYEIPDTQMADEKQLEILQDKANFRSFKPKPFNMREFYDRAGHDIRDMLLSCHFRGEVCSAEDFKVVFTRYGKCYTFNSGRDGRPRLKTMKGGTGNGLEIMLDIQQDEYLPVWGETDETSFEAGIKVQIHSQDEPPFIDQLGFGVAPGFQTFVACQEQRLIYLPPPWGTCKAVTMDSDLDFFDSYSITACRIDCETRYLVENCNCRMVHMPGDAPYCTPEQYKECADPALDFLVEKDQEYCVCEMPCNLTRYGKELSMVKIPSKASAKYLAKKFNKSEQYIGENILVLDIFFEVLNYETIEQKKAYEIAGLLGDIGGQMGLFIGASILTVLELFDYAYEVIKHKLCRRGKCQKEAKRSSADKGVALSLDDVKRHNPCESLRGHPAGMTYAANILPHHPARGTFEDFTC
B1 was tested, and the binding [1] was “binds”.

B2: human ASIC1a I428C (protein, UniProt P78348-2 1-528)
chain: MELKAEEEEVGGVQPVSIQAFASSSTLHGLAHIFSYERLSLKRALWALCFLGSLAVLLCVCTERVQYYFHYHHVTKLDEVAASQLTFPAVTLCNLNEFRFSQVSKNDLYHAGELLALLNNRYEIPDTQMADEKQLEILQDKANFRSFKPKPFNMREFYDRAGHDIRDMLLSCHFRGEVCSAEDFKVVFTRYGKCYTFNSGRDGRPRLKTMKGGTGNGLEIMLDIQQDEYLPVWGETDETSFEAGIKVQIHSQDEPPFIDQLGFGVAPGFQTFVACQEQRLIYLPPPWGTCKAVTMDSDLDFFDSYSITACRIDCETRYLVENCNCRMVHMPGDAPYCTPEQYKECADPALDFLVEKDQEYCVCEMPCNLTRYGKELSMVKIPSKASAKYLAKKFNKSEQYIGENILVLDIFFEVLNYETIEQKKAYECAGLLGDIGGQMGLFIGASILTVLELFDYAYEVIKHKLCRRGKCQKEAKRSSADKGVALSLDDVKRHNPCESLRGHPAGMTYAANILPHHPARGTFEDFTC
For B2, the binding [2] was “binds”.

B3: human ASIC1a G430C (protein, UniProt P78348-2 1-528)
chain: MELKAEEEEVGGVQPVSIQAFASSSTLHGLAHIFSYERLSLKRALWALCFLGSLAVLLCVCTERVQYYFHYHHVTKLDEVAASQLTFPAVTLCNLNEFRFSQVSKNDLYHAGELLALLNNRYEIPDTQMADEKQLEILQDKANFRSFKPKPFNMREFYDRAGHDIRDMLLSCHFRGEVCSAEDFKVVFTRYGKCYTFNSGRDGRPRLKTMKGGTGNGLEIMLDIQQDEYLPVWGETDETSFEAGIKVQIHSQDEPPFIDQLGFGVAPGFQTFVACQEQRLIYLPPPWGTCKAVTMDSDLDFFDSYSITACRIDCETRYLVENCNCRMVHMPGDAPYCTPEQYKECADPALDFLVEKDQEYCVCEMPCNLTRYGKELSMVKIPSKASAKYLAKKFNKSEQYIGENILVLDIFFEVLNYETIEQKKAYEIACLLGDIGGQMGLFIGASILTVLELFDYAYEVIKHKLCRRGKCQKEAKRSSADKGVALSLDDVKRHNPCESLRGHPAGMTYAANILPHHPARGTFEDFTC
With B3 the binding [3] was “binds”.
